The chains behind the UniProt entries cited, without tags or fusion partners. Where a name states a change or a piece, a line headed by the entry shows the natural chain unless it says otherwise.
UniProt P18054: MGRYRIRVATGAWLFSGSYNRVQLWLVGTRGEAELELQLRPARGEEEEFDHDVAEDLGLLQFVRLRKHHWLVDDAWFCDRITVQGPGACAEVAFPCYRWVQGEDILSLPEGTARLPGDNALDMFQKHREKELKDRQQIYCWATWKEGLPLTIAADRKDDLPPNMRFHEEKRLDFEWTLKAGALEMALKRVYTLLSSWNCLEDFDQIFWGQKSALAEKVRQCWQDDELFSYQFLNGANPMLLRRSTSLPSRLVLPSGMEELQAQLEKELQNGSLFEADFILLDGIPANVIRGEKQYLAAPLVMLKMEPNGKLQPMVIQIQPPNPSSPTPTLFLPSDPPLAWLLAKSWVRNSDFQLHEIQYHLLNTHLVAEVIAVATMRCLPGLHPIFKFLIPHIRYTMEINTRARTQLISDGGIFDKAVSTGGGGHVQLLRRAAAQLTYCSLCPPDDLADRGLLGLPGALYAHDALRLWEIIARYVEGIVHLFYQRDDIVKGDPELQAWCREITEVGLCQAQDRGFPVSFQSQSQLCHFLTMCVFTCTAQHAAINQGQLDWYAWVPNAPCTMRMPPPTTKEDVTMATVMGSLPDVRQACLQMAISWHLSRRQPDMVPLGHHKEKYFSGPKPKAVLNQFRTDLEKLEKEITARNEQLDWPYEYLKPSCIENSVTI

Hit rate of the full screen: of about 580,000 compounds, about 6,100 (1.1%) were called active. The shares of active, inactive and inconclusive entries below differ from those in the screen. The call rests on the fitted dose curve; in most records, active means well fitted inhibition curve with a large enough effect; inconclusive means small, poorly fitted or top-dose-only effect, or another doubt; inactive means no such curve, though single readings can be large or run the other way. Where the call is inconclusive, the potency comes from a doubtful curve fit.
The molecules below were run against Polyunsaturated fatty acid lipoxygenase ALOX12 (Homo sapiens) (UniProt P18054) (assay: Primary qHTS assay for inhibitors of human arachidonate 12S-lipoxygenase (ALOX12): Round 2). Settings: purified 12hLO, xylenol orange hydroperoxide absorbance; activity change, negative = inhibition: at 108 µM (top of the series) unless noted.
Outline: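 Purified human 12hLO at 150 nM in 25 mM Hepes, 0.01% Triton X-100, pH 7.0, preincubated 15 min at room temperature with compound. Reaction started with 40 uM arachidonic acid, 30 min at room temperature. Hydroperoxide measured by Fe-xylenol orange, 573/405 nm absorbance ratio.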
For `O=C(Nc1cccc(Cl)c1)c1cccc(Oc2ccc([N+](=O)[O-])cc2Cl)c1`, the Potency was “inactive”. `COc1ccc(OC)c(C2C3=C(N=C4SCC(=O)N42)c2ccccc2CC3)c1` (configuration not stated) was tested, and the Potency was “inactive”. With `O=C(O)CNCC1COc2ccccc2O1` (configuration not stated) the Potency was inconclusive: 17.8 µM [inhibitor, partial curve, poor fit]. With `C=CCSc1nnc(-c2cnn(-c3ccccc3)c2-n2cccc2)n1C` the Potency was “inactive”. `O=C(NC(=S)Nc1ccccc1N1CCCCC1)c1cccs1` was tested, and the Potency was active: 50.1 µM. For `N=C(N)c1cccc(N)c1`, the Potency was inconclusive: 31.6 µM [inhibitor, partial curve, poor fit]. For `Cc1cccc(/C=C(/C#N)c2nc(-c3ccncc3)cs2)c1`, the Potency was inconclusive: 5.01 µM [inhibitor, full curve, poor fit]. In the case of `C[C@@H]1CN([C@@H](C)CO)C(=O)CCCn2nncc2CO[C@H]1CN(C)C(=O)CCC(F)(F)F`, the Potency is reported as inconclusive: 35.5 µM [inhibitor, single point]. With `COCCNc1nc(Oc2ccc(CC(=O)OC)cc2)c2sc(-c3ccccc3)cc2n1` the Potency was inconclusive: 5.62 µM [inhibitor, full curve, poor fit]. `CCOC(=O)N1CCN(S(=O)(=O)c2ccc(C)cc2)C1c1ccccc1` (configuration not stated) was tested, and the Potency was “inactive”. In the case of `CCCC(=O)N1CCN(S(=O)(=O)c2cc3c(cc2Cl)NC(=O)CO3)CC1`, the activity change, negative = inhibition is reported as inconclusive: -46.7% [inhibitor]. For `C[C@@H]1CCCCO[C@@H](CN(C)C(=O)Nc2ccc3c(c2)OCO3)[C@@H](C)CN([C@H](C)CO)C(=O)c2cc(NC(=O)Nc3ccc(C(F)(F)F)cc3)ccc2O1`, the Potency was inconclusive: 50.1 µM [inhibitor, partial curve, poor fit]. `O=C(COC(=O)c1ccccc1Br)Nc1nc(-c2ccccc2)cs1` was tested, and the Potency was inconclusive: 44.7 µM [inhibitor, partial curve, poor fit]. With `COc1ccc(Cn2c(CCC(=O)Nc3ccccc3)nc3cccnc32)cc1` the Potency was “inactive”. With `COc1ccc(-c2nc(CSc3nncn4c3cc3occc34)c(C)o2)cc1` the Potency was inconclusive: 50.1 µM [inhibitor, partial curve, poor fit]. In the case of `COC1CCCOC12CCN(C(=O)c1ccc3n[nH]nc3c1)CC2` (configuration not stated), the Potency is reported as “inactive”. `COc1ccc(-c2nc(C#N)c(N3CCCCC3)o2)cc1OC` was tested, and the Potency was “inactive”. `O=C(C[C@H]1C(=O)N(CCc2ccccc2)C[C@@H]1c1ccccc1)Nc1ccccc1` was tested, and the Potency was inconclusive: 31.6 µM [inhibitor, partial curve, poor fit]. `N#Cc1ccc(S(=O)(=O)N2CCCN(S(=O)(=O)c3ccccc3)CCC(=O)NCC2)cc1` was tested, and the Potency was inconclusive: 22.4 µM [inhibitor, full curve, poor fit]. In the case of `COc1ccc(CNC(=O)C2=C(C)C(=O)OC23CCC(C)CC3)cc1` (configuration not stated), the Potency is reported as inconclusive: 50.1 µM [inhibitor, partial curve, poor fit]. With `CCOC(=O)c1c(NC(=O)COc2cc(C)ccc2C(C)C)sc(C)c1C` the Potency was inconclusive: 56.2 µM [inhibitor, partial curve, poor fit]. `CC(=O)Nc1ccc2c(c1)C(=O)c1ccccc1C2=O` was tested, and the Potency was “inactive”. For `COCCNc1nc(-c2ccccc2F)c2sc(-c3ccccc3)cc2n1`, the Potency was inconclusive: 39.8 µM [inhibitor, partial curve, poor fit]. `COC[C@@H]1CN(C(=O)c2cn3ccccc3n2)C[C@H]1c1nc(C)no1` was tested, and the Potency was “inactive”. For `COc1ccc(OC)c(/C=C2\Oc3cc(OCC(=O)N4CC(O)C[C@H]4C(=O)O)ccc3C2=O)c1` (some centres not stated), the Potency was inconclusive: 56.2 µM [inhibitor, partial curve, poor fit]. In the case of `O=C(Cc1c[nH]c2ncc(-c3cccc(O)c3)cc12)N1CCOCC1`, the Potency is reported as inconclusive: 35.5 µM [inhibitor, full curve]. With `COc1ccc(CNC(=O)c2nc(-c3ccc4cc[nH]c4c3)no2)cc1` the Potency was inconclusive: 44.7 µM [inhibitor, partial curve, poor fit]. `Cc1cc(=O)c(C(=O)Nc2nnc(C(C)C)s2)nn1-c1ccccc1F` was tested, and the Potency was “inactive”. In the case of `COc1ccc(N2CCN(CCNC(=O)Nc3ccc([N+](=O)[O-])cc3OC)CC2)cc1`, the Potency is reported as inconclusive: 44.7 µM [inhibitor, partial curve, poor fit]. With `CCC1CCCCN1C(=O)Cn1c(=O)n(-c2ccccc2)c(=O)c2sccc21` (configuration not stated) the Potency was inconclusive: 39.8 µM [inhibitor, partial curve, poor fit]. `COCCn1c(SCC(=O)N2CCCCCC2)nnc1-c1ccco1` was tested, and the Potency was “inactive”. `COc1ccc(-c2onc(C)c2C(=O)NCCC(c2ccccc2)c2ccccc2)cc1` was tested, and the Potency was inconclusive: 79.4 µM [inhibitor, partial curve, poor fit]. With `Cc1ncsc1CN1CC(N(CC(C)C)C2CCOCC2)C1` the Potency was “inactive”. With `COc1ccc2c(C(=O)CN3CCSCC3)c[nH]c2c1` the Potency was inconclusive: 12.6 µM [inhibitor, partial curve, poor fit]. For `CCN(CC)c1ccc(NC(=O)c2c(C)noc2C)cc1`, the Potency was “inactive”. With `O=[N+]([O-])c1ccc(NN=CC2CCCCCC2)c([N+](=O)[O-])c1` the Potency was inconclusive: 44.7 µM [inhibitor, partial curve, poor fit]. `COc1cccc(CNC(=O)c2cc(C)nc3ccc(C)cc23)c1` was tested, and the Potency was “inactive”. `CCOc1ccccc1OCCOCCN1CCN(Cc2ccccc2)CC1` was tested, and the Potency was inconclusive: 1.41 µM [inhibitor, full curve, poor fit]. `CCOc1ccc(OCCCCNC(C)(C)C)cc1` was tested, and the Potency was inconclusive: 6.31 µM [inhibitor, full curve, poor fit]. With `Cc1cc(C)c2nc(NNC(=O)c3cc(=O)c4ccccc4o3)sc2c1` the Potency was inconclusive: 28.2 µM [inhibitor, partial curve, poor fit]. With `Cc1cc2nc(COC(=O)c3cccc(NC(=O)c4cccc(Cl)c4)c3C)cc(=O)n2o1` the Potency was inconclusive: 0.224 µM [inhibitor, full curve, poor fit]. In the case of `C[C@@H]1CN([C@H](C)CO)C(=O)CCCn2nncc2CO[C@H]1CN(C)S(=O)(=O)c1ccc(C#N)cc1`, the Potency is reported as “inactive”.
On the % scale 0 is the no-effect control and ±100 the full control effect; potency means the concentration at half of the fitted maximal effect.
